Data reported in PMC3088709, “Phosphorylation of the Yeast γ-Tubulin Tub4 Regulates Microtubule Function” (PLoS ONE, 2011).
Where a chain is given by its changes, count along the chain named. Names and notes keep the numbering of the source. No constants are given. Whether binding was seen depends on the method and setting. In cells and extracts the contact can be indirect. Some binding calls cover weakened binding; strength is not graded here. Tags and fused reporters may be left off the sequences shown.

T1: Spc97-3HA (S. cerevisiae, UniProt P38863 1-823)
T1 construct: Spc97, budding yeast; tagged with 3HA in the TUB4-AID strain; source: S. cerevisiae (TUB4-AID SPC97-3HA strain), in lysate
T1 sequence (looked up): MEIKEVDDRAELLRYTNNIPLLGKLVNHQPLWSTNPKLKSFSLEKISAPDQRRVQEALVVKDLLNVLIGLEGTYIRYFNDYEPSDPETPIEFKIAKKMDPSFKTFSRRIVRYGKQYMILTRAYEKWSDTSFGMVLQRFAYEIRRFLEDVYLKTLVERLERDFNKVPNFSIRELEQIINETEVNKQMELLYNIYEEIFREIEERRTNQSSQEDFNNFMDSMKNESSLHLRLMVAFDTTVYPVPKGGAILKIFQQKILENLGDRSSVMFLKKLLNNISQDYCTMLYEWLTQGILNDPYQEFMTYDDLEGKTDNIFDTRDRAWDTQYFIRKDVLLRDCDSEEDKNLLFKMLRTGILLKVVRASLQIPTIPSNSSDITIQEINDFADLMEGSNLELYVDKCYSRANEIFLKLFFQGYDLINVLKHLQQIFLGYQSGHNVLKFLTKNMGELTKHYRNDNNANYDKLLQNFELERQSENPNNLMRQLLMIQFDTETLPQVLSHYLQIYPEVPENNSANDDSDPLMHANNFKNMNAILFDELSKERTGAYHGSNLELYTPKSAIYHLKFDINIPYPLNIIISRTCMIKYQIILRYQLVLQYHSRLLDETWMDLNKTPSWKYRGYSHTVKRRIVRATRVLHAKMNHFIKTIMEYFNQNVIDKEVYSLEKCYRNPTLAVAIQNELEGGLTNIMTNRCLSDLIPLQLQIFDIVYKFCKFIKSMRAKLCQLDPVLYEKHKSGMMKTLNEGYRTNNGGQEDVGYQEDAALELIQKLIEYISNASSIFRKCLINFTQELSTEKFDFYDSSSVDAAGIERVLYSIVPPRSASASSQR

T2: Spc97 with five copies of the FLAG epitope (S. cerevisiae) (UniProt P38863)
T2 sequence: T1 sequence (looked up)

T3: Tub4 with six copies of the hemagglutinin epitope HA (S. cerevisiae) (UniProt P53378)
T3 sequence: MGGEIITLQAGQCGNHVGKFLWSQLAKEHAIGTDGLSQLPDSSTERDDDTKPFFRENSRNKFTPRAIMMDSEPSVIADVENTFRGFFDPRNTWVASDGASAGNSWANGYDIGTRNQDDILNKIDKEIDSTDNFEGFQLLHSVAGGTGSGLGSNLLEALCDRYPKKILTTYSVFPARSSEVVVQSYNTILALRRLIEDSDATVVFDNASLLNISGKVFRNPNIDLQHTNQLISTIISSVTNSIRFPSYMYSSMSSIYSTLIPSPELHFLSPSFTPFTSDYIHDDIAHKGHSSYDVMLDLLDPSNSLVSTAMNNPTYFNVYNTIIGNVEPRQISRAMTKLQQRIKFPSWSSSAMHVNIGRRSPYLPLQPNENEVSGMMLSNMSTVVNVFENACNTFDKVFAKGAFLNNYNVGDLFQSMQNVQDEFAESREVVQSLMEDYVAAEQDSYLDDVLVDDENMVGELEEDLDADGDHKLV

B1: Spc98 (protein, UniProt P53540 1-846)
chain: MELEPTLFGIIEALAPQLLSQSHLQTFVSDVVNLLRSSTKSATQLGPLIDFYKLQSLDSPETTIMWHKIEKFLDALFGIQNTDDMVKYLSVFQSLLPSNYRAKIVQKSSGLNMENLANHEHLLSPVRAPSIYTEASFENMDRFSERRSMVSSPNRYVPSSTYSSVTLRQLSNPYYVNTIPEEDILKYVSYTLLATTSALFPFDHEQIQIPSKIPNFESGLLHLIFEAGLLYQSLGYKVEKFRMLNISPMKKALIIEISEELQNYTAFVNNLVSSGTVVSLKSLYREIYENIIRLRIYCRFTEHLEELSGDTFLIELNIFKSHGDLTIRKIATNLFNSMISLYYEYLMNWLTKGLLRATYGEFFIAENTDTNGTDDDFIYHIPIEFNQERVPAFIPKELAYKIFMIGKSYIFLEKYCKEVQWTNEFSKKYHVLYQSNSYRGISTNFFEIINDQYSEIVNHTNQILNQKFHYRDVVFALKNILLMGKSDFMDALIEKANDILATPSDSLPNYKLTRVLQEAVQLSSLRHLMNSPRNSSVINGLDARVLDLGHGSVGWDVFTLDYILYPPLSLVLNVNRPFGRKEYLRIFNFLWRFKKNNYFYQKEMLKSNDIIRSFKKIRGYNPLIRDIINKLSRISILRTQFQQFNSKMESYYLNCIIEENFKEMTRKLQRTENKSQNQFDLIRLNNGTIELNGILTPKAEVLTKSSSSKPQKHAIEKTLNIDELESVHNTFLTNILSHKLFATNTSEISVGDYSGQPYPTSLVLLLNSVYEFVKVYCNLNDIGYEIFIKMNLNDHEASNGLLGKFNTNLKEIVSQYKNFKDRLYIFRADLKNDGDEELFLLSKSLR
B2: Tub4-S74E (natural protein, S. cerevisiae, UniProt P53378 1-473, looked up)
chain: T3 sequence with S74E
notes: Tub4, gamma-tubulin of budding yeast, phospho-mimicking mutant; source: S. cerevisiae, from integrated pRS305-tub4-S74E, in lysate
B3: Tub4 (yeast gamma-tubulin), wild type, untagged (protein, UniProt P53378 1-473)
chain: T3 sequence
B4: Tub4-S100E (protein, UniProt P53378 1-473)
chain: T3 sequence with S100E
B5: Tub4-S360D (protein, UniProt P53378 1-473)
chain: T3 sequence with S360D
B6: Tub4-S360A (protein, UniProt P53378 1-473)
chain: T3 sequence with S360A
B7: Tub4 with six copies of the hemagglutinin epitope HA (protein, UniProt P53378 1-473)
chain: T3 sequence
B8: Spc97 with five copies of the FLAG epitope (protein, UniProt P38863 1-823)
chain: T1 sequence (looked up)

target: T1, Spc97-3HA; assay: co-IP; anti-HA immunoprecipitation of Spc97-3HA from lysates of TUB4-AID SPC97-3HA cells carrying pRS305 with TUB4, tub4-S74E, tub4-S100E or tub4-S360D, after 2 h of 0.5 mM IAA at 30°C to deplete Tub4-AID; blots with anti-Tub4, anti-Spc98, anti-Spc110 and anti-HA, normalised to precipitated Spc97-3HA

Binder | binding
B1 | binds
B2 | binds
B3 | binds
B4 | binds
B5 | binds

target: T2, Spc97 with five copies of the FLAG epitope (S. cerevisiae); assay: co-IP; anti-FLAG immunoprecipitation of Spc97-5FLAG from lysates of SPC97-5FLAG TUB4-6HA cells carrying pRS305 with TUB4 alleles; Protein G Dynabeads, 4°C, 50 mM Tris-HCl pH 7.5, 150 mM NaCl, 0.1% Triton X-100; blots with anti-Spc98 and anti-Tub4

Binder | binding
B1 | binds
B2 | binds
B6 | binds
B4 | binds
B7 | binds
B5 | binds

target: T3, Tub4 with six copies of the hemagglutinin epitope HA (S. cerevisiae); assay: co-IP; anti-HA immunoprecipitation of Tub4-6HA from lysates of SPC97-5FLAG TUB4-6HA cells carrying pRS305 with TUB4 alleles; Protein G Dynabeads, 4°C, 50 mM Tris-HCl pH 7.5, 150 mM NaCl, 0.1% Triton X-100; blots with anti-Tub4 and anti-FLAG

binding | Binder
binds | B8
